Data on 38 molecules can be found in the supplement of paper PMC8975748.

Where a name gives a salt, the structure may show the parent alone. ± gives the standard deviation of the averaged measurements. This is one part of the list. These are raw signals, not scaled to a control.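 One yeast strain harboring four plasmids, each bearing a fluorescent protein plus an amino-acid or uracil synthesis gene, founds the community. Random loss of plasmids produces mixed prototroph and auxotroph subpopulations. Cells were fixed, then counted with automated confocal fluorescence imaging, with DMSO-treated wells as vehicle reference.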

In the assay the test system is Saccharomyces cerevisiae BY4741 SeMeCo community. In words: imaged cell count per well (cells); higher = more cells. Particulars: 10 µM; 24 h; SM minimal medium. How it is done: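 Same SeMeCo high-content imaging drug screen: Selleck FDA-approved drugs at 10 µM, 24 h in SM medium, 384-well plates, 3 replicates.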
As to `CN[C@@H]1[C@H](O[C@H]2[C@H](O[C@H]3[C@H](O)[C@@H](O)[C@H](N=C(N)N)[C@@H](O)[C@@H]3N=C(N)N)O[C@@H](C)[C@]2(O)C=O)O[C@@H](CO)[C@H](O)[C@H]1O` [Streptomycin sulfate], the “imaged cell count per well” value came to 26600 ± 2800.

Regarding `Cn1nnc(-c2ccc(-c3ccc(N4C[C@H](COP(=O)(O)O)OC4=O)cc3F)cn2)n1` [Tedizolid Phosphate], the “imaged cell count per well” value was determined as 25000 ± 5100.

Regarding `CCC[C@@H]1C[C@@H](C(=O)N[C@@H]([C@H]2O[C@H](SC)[C@H](O)[C@@H](O)[C@H]2O)[C@@H](C)O)N(C)C1` [Lincomycin Hydrochloride Monohydrate], the “imaged cell count per well” value was determined as 22300 ± 5800.

As for `CC(=O)OCC1=C(C(=O)O)N2C(=O)[C@@H](NC(=O)Cc3cccs3)[C@H]2SC1` [Cephalothin], the “imaged cell count per well” value stood at 21400 ± 6100.

As to `OC1(c2ccc(Cl)c(C(F)(F)F)c2)CCN(CCCC(c2ccc(F)cc2)c2ccc(F)cc2)CC1` [Penfluridol], the “imaged cell count per well” value amounted to 25400 ± 3600.

For the molecule `Cn1nnnc1SCC1=C(C(=O)O)N2C(=O)[C@@H](NC(=O)[C@H](OC=O)c3ccccc3)[C@H]2SC1` [Cefamandole nafate], the “imaged cell count per well” value worked out at 21500 ± 10000.

As for `COC(=O)C1=C(C)NC(C)=C(C(=O)OC(C)C)C1c1cccc2nonc12` (stereo not drawn) [Isradipine], the “imaged cell count per well” value was 22300 ± 2200.

For the molecule `Cc1ncc([N+](=O)[O-])n1CC(O)CCl` (stereo not drawn) [Ornidazole], the “imaged cell count per well” value amounted to 19000 ± 6000.

As to `CC[C@H](c1ccc(O)cc1)[C@@H](CC)c1ccc(O)cc1` [Hexestrol], the “imaged cell count per well” value is 23300 ± 2200.

As for `COc1cc([C@@H]2c3cc4c(cc3[C@@H](O[C@@H]3O[C@@H]5CO[C@@H](c6cccs6)O[C@H]5[C@H](O)[C@H]3O)[C@H]3COC(=O)[C@H]23)OCO4)cc(OC)c1O` [Teniposide], the “imaged cell count per well” value is 21600 ± 2300.

Turning to `CC(=O)NS(=O)(=O)c1ccc(N)cc1` [Sulfacetamide Sodium], the “imaged cell count per well” value was 26600 ± 9800.

Consider `COc1ccc(CCN(C)CCCC(C#N)(c2ccc(OC)c(OC)c2)C(C)C)cc1OC` (stereo not drawn) [Verapamil HCl], for which the “imaged cell count per well” value stood at 21300 ± 4100.

In the case of `Cc1ccc(Nc2c(F)cccc2Cl)c(CC(=O)O)c1` [Lumiracoxib], the “imaged cell count per well” value is 11300 ± 5700.

In the case of `CCCNC(C)C(=O)Nc1ccccc1C` (stereo not drawn) [Prilocaine], the “imaged cell count per well” value was determined as 18600 ± 8700.

Regarding `C#CCN[C@@H]1CCc2ccccc21` [Rasagiline Mesylate], the “imaged cell count per well” value came to 21300 ± 2500.

As for `CN1C2CCCC1CC(NC(=O)c1nn(C)c3ccccc13)C2` (stereo not drawn) [Granisetron HCl], the “imaged cell count per well” value was 31200 ± 3000.

As to `O=C(c1ccc(OCCN2CCCCC2)cc1)c1c(-c2ccc(O)cc2)sc2cc(O)ccc12` [Raloxifene], the “imaged cell count per well” value came to 25300 ± 8100.

As for `Cc1ccc(S(=O)(=O)NC(=O)NN2CC3CCCC3C2)cc1` (stereo not drawn) [Gliclazide], the “imaged cell count per well” value came to 20300 ± 3300.

With `CCCCCc1ccc(C)cc1O` [Amylmetacresol], the “imaged cell count per well” value came to 22500 ± 4400.

As for `CC[C@H]1OC(=O)[C@H](C)[C@@H](O[C@H]2C[C@@](C)(OC)[C@@H](O)[C@H](C)O2)[C@H](C)[C@@H](O[C@@H]2O[C@H](C)C[C@H](N(C)C)[C@H]2O)[C@](C)(O)C[C@@H](C)C(=O)[C@H](C)[C@@H](O)[C@]1(C)O` [Erythromycin], the “imaged cell count per well” value was 27200 ± 540.

As to `CN(C)[C@@H]1C(O)=C(C(N)=O)C(=O)[C@@]2(O)C(O)=C3C(=O)c4c(O)ccc(Cl)c4[C@@H](O)[C@H]3C[C@@H]12` [Demeclocycline HCl], the “imaged cell count per well” value turned out to be 23300 ± 4700.

On to `CCn1cc(C(=O)O)c(=O)c2cc(F)c(N3CCNCC3)nc21` [Enoxacin], for which the “imaged cell count per well” value stood at 25400 ± 4600.

With `CO[C@@H]1[C@@H](O[C@@H]2O[C@H](C)[C@@H](O[C@H]3C[C@@](C)(O)[C@@H](OC(=O)CC(C)C)[C@H](C)O3)[C@H](N(C)C)[C@H]2O)[C@@H](CC=O)C[C@@H](C)[C@@H](O)/C=C/C=C/C[C@@H](C)OC(=O)C[C@H]1O` [Kitasamycin], the “imaged cell count per well” value was determined as 24500 ± 2500.

In the case of `CN(C)C(=O)COC(=O)Cc1ccc(OC(=O)c2ccc(NC(=N)N)cc2)cc1` [Camostat Mesilate], the “imaged cell count per well” value amounted to 23000 ± 1200.

Regarding `CN1CCC(=C2c3ccccc3CCc3sccc32)CC1` [Pizotifen Malate], the “imaged cell count per well” value amounted to 22000 ± 760.

Regarding `CC[C@H]1OC(=O)C[C@@H](O)[C@H](C)[C@@H](O[C@@H]2O[C@H](C)[C@@H](O[C@H]3C[C@@](C)(O)[C@@H](O)[C@H](C)O3)[C@H](N(C)C)[C@H]2O)[C@@H](CC=O)C[C@@H](C)C(=O)/C=C/C(C)=C/[C@@H]1CO[C@@H]1O[C@H](C)[C@@H](O)[C@@H](OC)[C@H]1OC` [Tylosin tartrate], the “imaged cell count per well” value amounted to 23400 ± 3400.

Regarding `COc1ccc2c(c1)c(CC(=O)O)c(C)n2C(=O)c1ccc(Cl)cc1` [Indomethacin], the “imaged cell count per well” value worked out at 26200 ± 1600.

`COCCCOc1ccnc(C[S+]([O-])c2nc3ccccc3[nH]2)c1C` (stereo not drawn) [Rabeprazole]: the “imaged cell count per well” value was found to be 23200 ± 6100.

`C[C@H]1COc2c(N3CCN(C)CC3)c(F)cc3c(=O)c(C(=O)O)cn1c23` [Levofloxacin]: the “imaged cell count per well” value was 27900 ± 4500.

For `CCOC(=O)C1=C[C@]2(CC)CCCN3CCc4c(n1c1ccccc41)[C@@H]32` [Vinpocetine], the “imaged cell count per well” value came to 23600 ± 6000.

Consider `O=C(c1ccc(F)cc1)C1CCN(CCn2c(=O)[nH]c3ccccc3c2=O)CC1` [Ketanserin], for which the “imaged cell count per well” value was 23100 ± 2400.

For the molecule `O=C(O[C@@H]1C[C@@H]2C[C@H]3C[C@H](C1)N2CC3=O)c1c[nH]c2ccccc12` [Dolasetron Mesylate], the “imaged cell count per well” value was determined as 29800 ± 4600.

Consider `CCOC(=O)CCC(=O)O[C@H]1[C@H](O[C@@H]2[C@@H](C)[C@H](O[C@H]3C[C@@](C)(OC)[C@@H](O)[C@H](C)O3)[C@@H](C)C(=O)O[C@H](CC)[C@@](C)(O)[C@H](O)[C@@H](C)C(=O)[C@H](C)C[C@@]2(C)O)O[C@H](C)C[C@@H]1N(C)C` [Erythromycin Ethylsuccinate], for which the “imaged cell count per well” value stood at 22800 ± 8300.

Consider `Cc1cccc(C)c1NC(=O)C1CCCCN1C` (stereo not drawn) [Mepivacaine HCl], for which the “imaged cell count per well” value came out at 23100 ± 9400.

Consider `O=C1Nc2ccccc2C1=O` [Isatin], for which the “imaged cell count per well” value came out at 26400 ± 6200.

Turning to `NC(=O)c1cn(Cc2c(F)cccc2F)nn1` [Rufinamide], the “imaged cell count per well” value is 27600 ± 5500.

In the case of `CC1(C)S[C@@H]2[C@H](NC(=O)[C@H](N)c3ccc(O)cc3)C(=O)N2[C@H]1C(=O)O` [Amoxicillin Sodium], the “imaged cell count per well” value came out at 24700 ± 4300.

On to `CCOC(=O)c1ccc(N)cc1` [Benzocaine], for which the “imaged cell count per well” value was determined as 25400 ± 6300.
